# Experimental data: PubChem BioAssay AID720711 (National Center for Advancing Translational Sciences (NCATS), 2013)
# Chains of the proteins cited; added tags and fusions are not shown.
# UniProt Q8WZA2, whole entry, looked up: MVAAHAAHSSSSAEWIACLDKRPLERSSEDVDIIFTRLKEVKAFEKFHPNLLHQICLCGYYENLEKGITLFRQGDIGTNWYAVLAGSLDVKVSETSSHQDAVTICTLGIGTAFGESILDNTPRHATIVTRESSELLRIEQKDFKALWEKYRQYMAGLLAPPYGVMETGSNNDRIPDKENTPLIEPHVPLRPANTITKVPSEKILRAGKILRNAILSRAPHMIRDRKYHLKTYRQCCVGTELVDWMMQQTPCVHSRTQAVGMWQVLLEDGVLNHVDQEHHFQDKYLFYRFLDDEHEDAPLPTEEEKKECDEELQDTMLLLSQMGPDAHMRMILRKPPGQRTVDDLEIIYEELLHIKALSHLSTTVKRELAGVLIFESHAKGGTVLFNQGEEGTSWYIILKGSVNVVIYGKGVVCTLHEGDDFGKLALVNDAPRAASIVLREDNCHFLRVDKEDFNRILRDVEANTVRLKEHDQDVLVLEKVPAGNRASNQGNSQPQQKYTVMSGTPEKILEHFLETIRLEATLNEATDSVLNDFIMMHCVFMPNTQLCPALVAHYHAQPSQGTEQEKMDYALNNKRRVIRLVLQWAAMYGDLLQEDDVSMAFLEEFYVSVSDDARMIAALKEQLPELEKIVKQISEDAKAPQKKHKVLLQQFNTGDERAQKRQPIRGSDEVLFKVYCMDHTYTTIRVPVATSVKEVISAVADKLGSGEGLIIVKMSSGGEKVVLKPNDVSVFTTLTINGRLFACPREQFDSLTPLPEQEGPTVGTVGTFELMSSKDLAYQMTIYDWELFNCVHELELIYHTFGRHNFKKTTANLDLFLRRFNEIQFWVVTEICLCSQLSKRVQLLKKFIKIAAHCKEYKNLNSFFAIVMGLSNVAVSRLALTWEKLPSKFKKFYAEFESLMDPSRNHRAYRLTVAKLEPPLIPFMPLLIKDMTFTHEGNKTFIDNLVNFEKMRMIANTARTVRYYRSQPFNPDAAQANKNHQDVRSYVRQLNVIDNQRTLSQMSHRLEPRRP
# Hit rate of the full screen: of about 360,000 compounds, about 290 (0.081%) were called active. Inconclusive results, whose numbers are uncertain, are shown with a selection of clear calls. Calls follow the shape of the dose curve; as a rule, active = well fitted activation curve with a large enough effect; inconclusive = small, poorly fitted or top-dose-only effect; inactive = no such curve, though single readings can be large or run the other way. A potency beside an inconclusive call is a rough fit, not a confirmed value.
# Target: Rap guanine nucleotide exchange factor 4 (Homo sapiens) (UniProt Q8WZA2)
# Assay: qHTS for Agonist of cAMP-regulated guanine nucleotide exchange factor 4 (EPAC2): primary screen; also: nearly all actives have a fitted effect of over 50% in size
# Conditions: biochemical qHTS; Potency: EPAC2 activation unless noted; activation: at 154 µM (top of the series), 100% = 6.5 mM cAMP response unless noted
# How it was run: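 Exchange assay: 100 nM EPAC2 with 250 nM Rap1B-BODIPY-GDP and 50 uM GDP. Fluorescence (ex 480/em 540 nm) read every 5 min for 30 min at room temperature. Data normalized to 6.5 mM cAMP as agonist control.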
# Potency is read from the fitted curve at half-maximal effect.
Compound,Potency,activation
CCn1c(O)c(/C=N/N=C/c2ccc(OC)cc2)c2cc(C3=NNC(=O)CC3)ccc21,active: 100 µM,
CCOc1ccc(OCC)c(NC(=O)CCn2cccc2)c1,,"inconclusive: 261% [activator] [at 15.6 µM, 100% = 6.5 mM cAMP response]"
CN(CCC#N)c1ccc(/C=C(\C#N)c2ccccn2)cc1,"inconclusive: 100 µM [activator, single point]",
Cc1cc2nc3c(=O)n(CCc4ccccc4)c(=O)[nH]c3nc2cc1N,active: 100 µM,
Cc1ccc(-c2cc(C(=O)N3CCN(c4ccc(F)cc4)CC3)c3ccccc3n2)o1,"inconclusive: 126 µM [activator, single point]",
Cc1cc(NC(=O)c2cccc(S(=O)(=O)N3c4ccccc4CC3C)c2)no1 (stereo not given),"inconclusive: 100 µM [activator, partial curve]",
Nc1nc2c(nc(Br)n2[C@@H]2O[C@@H]3COP(=O)(O)O[C@H]3[C@H]2O)c(=O)[nH]1,inactive,
CN(C)c1ccc(/C=N/N(CCC(=O)NC(C)(C)C)C2=NS(=O)(=O)c3ccccc32)cc1,"inconclusive: 112 µM [activator, single point]",
COc1ccc(C(=O)N2CCN=C2SCc2cccnc2)c(OC)c1,,inconclusive: 5.93% [activator]
Nc1c2c(nc3ccc(Br)cc13)N(c1ccccc1)CC2,"inconclusive: 56.2 µM [activator, partial curve]",
C(#Cc1ccc2c(c1)COc1c3ccccc3nn1-2)c1ccccc1,"inconclusive: 63.1 µM [activator, full curve]",
Cc1cc(Cl)ccc1NC(=S)NCCc1ccc(Cl)cc1,"inconclusive: 28.2 µM [activator, full curve, poor fit]",
Cc1ccsc1/C=C/c1ccc2ccccc2n1,"inconclusive: 89.1 µM [activator, partial curve]",
CN1CCS/C1=C\C=C1/SC(=S)N(CC(=O)O)C1=O,"inconclusive: 112 µM [activator, partial curve]",
CCOC(=O)N1CCC(NC(=O)C2CCN(S(=O)(=O)c3cnc[nH]3)CC2)CC1,"inconclusive: 50.1 µM [activator, single point]",
CCOc1cc(N2CCOCC2)c(OCC)cc1NC(=O)CSc1ncn[nH]1,inactive,
O=C(O)c1cc(Cl)ccc1-c1ccc(/C=C/c2cc(C(F)(F)F)[nH]c(=O)n2)o1,active: 100 µM,
Cc1cc2nc3c(=O)n(Cc4ccccc4)c(=O)[nH]c3nc2cc1N,active: 112 µM,
COCCNC(=O)C(c1ccc(Cl)cc1)N(C(=O)Cn1nnc2ccccc21)c1cccnc1 (stereo not given),"inconclusive: 112 µM [activator, single point]",
Cc1ccccc1Nc1nc(CSc2nnnn2-c2ccccc2)cs1,,"inconclusive: 527% [activator] [at 15.6 µM, 100% = 6.5 mM cAMP response]"
COc1ccc(-c2cc3cccc(OC)c3oc2=O)cc1,inactive,
CCN1C(=O)/C(=C/c2ccc(N3CCCC3)cc2)NC1=S,"inconclusive: 112 µM [activator, single point]",
COc1cc2c(cc1OC)C(c1ccc(-c3ccc(Cl)c(Cl)c3)o1)=NCC2,"inconclusive: 31.6 µM [activator, partial curve, poor fit]",

# Rewritten as tab-separated lines: entries from further up.
Compound	Potency	activation
O=C(O)c1cc(Cl)ccc1-c1ccc(/C=C/c2cc(C(F)(F)F)[nH]c(=O)n2)o1	active: 100 µM	
Cc1cc2nc3c(=O)n(Cc4ccccc4)c(=O)[nH]c3nc2cc1N	active: 112 µM	

# The listing continues:

Compound,Potency,activation
COc1cc(C#Cc2ccc3cc(CCO)oc(=O)c3c2)cc(OC)c1,"inconclusive: 31.6 µM [activator, full curve, poor fit]",
COc1ccc(N2CCN(CC(O)COC(c3ccccc3)c3ccccc3)CC2)cc1 (stereo not given),inactive,
CCN(CC)C(=O)c1ccc(/C=C/c2c[nH]c3ccccc23)[n+](C)c1,"inconclusive: 89.1 µM [activator, partial curve]",
CCNC(=O)C1(C)CCCN(Cc2cccc(Oc3ccccc3)c2)C1 (stereo not given),inactive,
CC(=O)OCCNc1cc(N2CCN(C)CC2)c2noc3c2c1C(=O)c1ccccc1-3,"inconclusive: 11.2 µM [activator, partial curve, poor fit]",
COc1ccc(-c2cn(Cc3ccc(C(=O)c4ccccc4)cc3)nn2)cc1,"inconclusive: 56.2 µM [activator, partial curve]",
O=C(c1cc(-c2cccs2)on1)N1CCN(c2ccccc2)CC1,"inconclusive: 44.7 µM [activator, full curve, poor fit]",
CSc1ccc(CN2CCC2(C)C(=O)Nc2cccc(NS(C)(=O)=O)c2)cc1 (stereo not given),inactive,
CC1CC(C)(C)Nc2ccc(OC(=O)c3ccco3)cc21 (stereo not given),"inconclusive: 10 µM [activator, partial curve]",
Cc1ccc(Cn2ncn3c(cc4ccccc43)c2=O)cc1,"inconclusive: 100 µM [activator, partial curve]",
O=C(O)CCCCCN1C(=O)/C(=C\c2ccc(-c3ccc(Cl)cc3)o2)SC1=S,"inconclusive: 89.1 µM [activator, partial curve]",
O=C(O)c1ccc(/C=N/Nc2cccc(C(F)(F)F)c2)cc1,inactive,
Cc1ccc2c(c1)Oc1ccccc1C=C2C(=O)O,"inconclusive: 112 µM [activator, single point]",
CCOc1ccccc1N1CCN(C(=O)c2cc(-c3cc(OC)ccc3OC)nc3ccccc23)CC1,inactive,
Cc1ccc(-c2cnc3c(Nc4cccc(OC(F)(F)C(F)F)c4)nccn23)cc1,inactive,
CC[n+]1ccc(/C=C/c2c[nH]c3ccccc23)cc1,active: 100 µM,
O=C(O)c1ccc(NS(=O)(=O)c2ccc3c(c2)C(=O)c2ccccc2C3=O)cc1,inactive,
C/C(=N\Nc1ccc(Cl)c(C(=O)O)c1)c1ccc(Br)s1,inactive,
Cc1noc(C)c1CSc1ncnc2sc(C)c(C)c12,"inconclusive: 25.1 µM [activator, partial curve]",
CCS(=O)(=O)C1=NN2C(=N)/C(=C\c3ccc(OS(=O)(=O)c4ccccc4)cc3)C(=O)N=C2S1,inactive,
Cc1nc2ccccc2n2c(O)c(CC(=O)O)cc12,active: 112 µM,
CN(C)c1ccc(/C=C(\C#N)C(=O)Nc2nc3c(s2)CCN(Cc2ccccc2)C3)cc1,active: 112 µM,

# Compounds listed so far containing a cyano group:
Compound,Potency,activation
CN(CCC#N)c1ccc(/C=C(\C#N)c2ccccn2)cc1,"inconclusive: 100 µM [activator, single point]",
CN(C)c1ccc(/C=C(\C#N)C(=O)Nc2nc3c(s2)CCN(Cc2ccccc2)C3)cc1,active: 112 µM,
